According to paper doi:10.1101/2021.10.17.464477:
No constants are given. Whether binding was seen depends on the method and setting. In cells and extracts the contact can be indirect. Some results given as binding are weak or reduced against the parent protein; the word gives no strength. Where a sequence is shown, tags or fusion partners need not be part of it.

Chains of the proteins cited; added tags and fusions are not shown.
UniProt Q9SV12: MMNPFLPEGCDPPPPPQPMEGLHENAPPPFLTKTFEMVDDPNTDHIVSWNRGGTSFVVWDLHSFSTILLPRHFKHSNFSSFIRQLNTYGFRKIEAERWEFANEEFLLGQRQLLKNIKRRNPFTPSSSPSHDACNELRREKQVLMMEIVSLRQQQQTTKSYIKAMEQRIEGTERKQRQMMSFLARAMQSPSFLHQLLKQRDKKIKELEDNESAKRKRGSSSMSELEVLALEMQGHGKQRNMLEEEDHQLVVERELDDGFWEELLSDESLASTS

Target: Heat shock factor HSFA7a, HA-tagged (Arabidopsis thaliana) (UniProt Q9SV12)
Experiment: co-IP

binding: binds
B1: HEAT SHOCK FACTOR BINDING PROTEIN (HSBP), Myc-tagged (protein, UniProt Q8GW48 1-86)
chain: MDGHDSEDTKQSTADMTAFVQNLLQQMQTRFQTMSDSIITKIDDMGGRINELEQSINDLRAEMGVEGTPPPASKSGDEPKTPASSS
